Laboratory results reported in article PMC9508819, “Rbp95 binds to 25S rRNA helix H95 and cooperates with the Npa1 complex during early pre-60S particle maturation”.
These are yes or no findings as the source states them, for the method shown. In cells and extracts the contact can be indirect. Some binding calls cover weakened binding; strength is not graded here. Each block holds one molecule with its values, some of them ahead of it.

Protein sequences, listed by entry. Tags and fused reporters are not part of them.
UniProt P14126: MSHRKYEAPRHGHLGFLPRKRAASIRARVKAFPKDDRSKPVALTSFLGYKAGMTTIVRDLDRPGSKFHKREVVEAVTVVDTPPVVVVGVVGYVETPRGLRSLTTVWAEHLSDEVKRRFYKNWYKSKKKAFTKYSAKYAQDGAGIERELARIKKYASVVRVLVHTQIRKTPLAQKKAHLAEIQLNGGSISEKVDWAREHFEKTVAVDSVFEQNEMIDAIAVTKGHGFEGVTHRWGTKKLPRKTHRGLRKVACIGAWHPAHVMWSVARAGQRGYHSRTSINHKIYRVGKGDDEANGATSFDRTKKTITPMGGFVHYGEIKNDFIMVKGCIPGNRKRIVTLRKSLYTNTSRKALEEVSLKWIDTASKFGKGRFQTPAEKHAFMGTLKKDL
UniProt P34241: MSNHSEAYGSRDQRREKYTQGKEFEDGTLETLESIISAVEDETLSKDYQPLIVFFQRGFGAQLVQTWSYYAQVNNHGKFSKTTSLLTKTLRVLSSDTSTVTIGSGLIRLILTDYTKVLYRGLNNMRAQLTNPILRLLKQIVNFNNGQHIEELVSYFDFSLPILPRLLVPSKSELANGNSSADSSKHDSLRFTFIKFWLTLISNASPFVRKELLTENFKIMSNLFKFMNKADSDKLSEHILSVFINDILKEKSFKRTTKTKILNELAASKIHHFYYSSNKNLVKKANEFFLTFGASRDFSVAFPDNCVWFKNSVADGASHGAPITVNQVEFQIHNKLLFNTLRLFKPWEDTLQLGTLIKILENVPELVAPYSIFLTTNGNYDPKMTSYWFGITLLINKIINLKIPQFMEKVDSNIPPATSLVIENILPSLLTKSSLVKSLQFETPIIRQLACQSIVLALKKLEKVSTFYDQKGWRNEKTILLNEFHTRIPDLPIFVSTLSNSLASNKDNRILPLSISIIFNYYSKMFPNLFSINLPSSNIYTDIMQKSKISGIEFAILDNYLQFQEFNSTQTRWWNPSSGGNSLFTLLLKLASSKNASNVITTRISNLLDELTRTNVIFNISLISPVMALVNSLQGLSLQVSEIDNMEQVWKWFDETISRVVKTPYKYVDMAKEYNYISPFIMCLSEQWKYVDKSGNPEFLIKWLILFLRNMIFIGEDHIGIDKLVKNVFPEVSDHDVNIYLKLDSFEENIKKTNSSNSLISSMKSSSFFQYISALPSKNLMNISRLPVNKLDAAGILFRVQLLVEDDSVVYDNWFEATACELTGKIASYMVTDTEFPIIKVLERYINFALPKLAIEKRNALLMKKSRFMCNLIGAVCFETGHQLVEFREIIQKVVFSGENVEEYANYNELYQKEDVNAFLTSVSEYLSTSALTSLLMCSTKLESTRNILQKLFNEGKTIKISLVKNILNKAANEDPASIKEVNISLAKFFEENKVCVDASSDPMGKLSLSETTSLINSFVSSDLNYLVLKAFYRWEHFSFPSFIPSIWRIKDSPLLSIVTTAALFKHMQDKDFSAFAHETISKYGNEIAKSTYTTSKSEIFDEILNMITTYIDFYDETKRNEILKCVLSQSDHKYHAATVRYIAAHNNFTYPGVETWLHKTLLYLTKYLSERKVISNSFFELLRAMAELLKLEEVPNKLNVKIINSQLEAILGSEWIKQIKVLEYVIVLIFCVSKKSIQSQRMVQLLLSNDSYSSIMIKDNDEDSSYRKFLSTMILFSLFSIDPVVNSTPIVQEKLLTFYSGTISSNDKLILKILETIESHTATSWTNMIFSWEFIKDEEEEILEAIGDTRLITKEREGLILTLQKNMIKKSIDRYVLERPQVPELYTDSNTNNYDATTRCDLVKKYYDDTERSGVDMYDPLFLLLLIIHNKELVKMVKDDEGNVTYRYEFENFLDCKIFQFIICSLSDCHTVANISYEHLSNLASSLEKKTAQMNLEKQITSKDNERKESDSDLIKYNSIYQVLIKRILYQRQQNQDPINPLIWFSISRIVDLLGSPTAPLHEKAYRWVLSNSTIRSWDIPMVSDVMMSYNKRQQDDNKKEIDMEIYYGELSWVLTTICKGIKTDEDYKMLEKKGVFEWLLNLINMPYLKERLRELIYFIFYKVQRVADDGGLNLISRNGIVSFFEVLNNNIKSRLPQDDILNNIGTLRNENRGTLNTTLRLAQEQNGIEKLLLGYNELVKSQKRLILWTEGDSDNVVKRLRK

Key:
Noc2-TAP (S. cerevisiae) [1] = molecular target: T1, Noc2-TAP (S. cerevisiae) (UniProt P39744); assay: co-IP; Noc2-TAP purification from wild-type control and GAL1-RPL3, GAL1-NPA1 and GAL1-SSF1 Δssf2 strains grown in galactose (YPG) or shifted to glucose (YPD) for about 18 h; western blotting (Supplementary Figure S8)
T1 sequence: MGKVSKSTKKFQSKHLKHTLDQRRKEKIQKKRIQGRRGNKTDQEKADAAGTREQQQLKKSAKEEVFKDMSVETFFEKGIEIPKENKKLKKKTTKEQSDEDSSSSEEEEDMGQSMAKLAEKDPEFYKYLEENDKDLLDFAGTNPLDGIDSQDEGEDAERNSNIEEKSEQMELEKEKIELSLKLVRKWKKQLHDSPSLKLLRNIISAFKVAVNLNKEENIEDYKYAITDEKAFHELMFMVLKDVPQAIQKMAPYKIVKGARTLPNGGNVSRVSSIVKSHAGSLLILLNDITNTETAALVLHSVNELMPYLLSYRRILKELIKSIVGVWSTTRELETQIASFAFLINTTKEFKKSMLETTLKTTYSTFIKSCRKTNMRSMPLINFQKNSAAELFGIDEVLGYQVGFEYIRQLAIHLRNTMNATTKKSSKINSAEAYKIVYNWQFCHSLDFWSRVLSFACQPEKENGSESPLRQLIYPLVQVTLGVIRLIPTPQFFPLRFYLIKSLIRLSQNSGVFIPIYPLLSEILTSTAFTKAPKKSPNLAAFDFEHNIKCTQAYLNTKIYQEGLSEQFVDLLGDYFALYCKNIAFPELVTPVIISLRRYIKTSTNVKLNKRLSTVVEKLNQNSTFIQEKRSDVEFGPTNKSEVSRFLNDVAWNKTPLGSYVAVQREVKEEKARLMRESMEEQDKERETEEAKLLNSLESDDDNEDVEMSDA

Noc2-TAP (S. cerevisiae) [2] = molecular target: T1, Noc2-TAP (S. cerevisiae); assay: co-IP; tandem-affinity purification from yeast lysate (IgG Sepharose, TEV elution, Calmodulin Sepharose, EGTA elution); 50 mM Tris-HCl pH 7.5, 100 mM NaCl, 1.5 mM MgCl2, 0.1% NP-40, 1 mM DTT; eluates analysed by western blotting; for Figure 8C from wild-type and Δrbp95 strains
Nsa1-TAP (S. cerevisiae) = molecular target: T2, Nsa1-TAP (S. cerevisiae) (UniProt P53136); assay: as above
T2 sequence: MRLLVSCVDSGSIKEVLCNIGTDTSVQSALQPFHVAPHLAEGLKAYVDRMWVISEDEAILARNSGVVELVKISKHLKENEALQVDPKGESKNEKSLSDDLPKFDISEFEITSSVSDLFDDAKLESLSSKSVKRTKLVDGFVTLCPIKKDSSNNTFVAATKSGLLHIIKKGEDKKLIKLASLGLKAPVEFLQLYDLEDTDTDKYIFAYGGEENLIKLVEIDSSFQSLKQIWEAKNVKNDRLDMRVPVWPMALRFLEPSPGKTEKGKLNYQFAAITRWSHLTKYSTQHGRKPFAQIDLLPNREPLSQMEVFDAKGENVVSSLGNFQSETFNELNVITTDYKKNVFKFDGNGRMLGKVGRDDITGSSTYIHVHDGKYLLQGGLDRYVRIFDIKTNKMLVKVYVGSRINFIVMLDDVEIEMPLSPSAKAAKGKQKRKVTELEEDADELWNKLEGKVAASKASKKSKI

Ssf1-TAP (S. cerevisiae) = molecular target: T3, Ssf1-TAP (S. cerevisiae) (UniProt P38789); assay: as above
T3 sequence: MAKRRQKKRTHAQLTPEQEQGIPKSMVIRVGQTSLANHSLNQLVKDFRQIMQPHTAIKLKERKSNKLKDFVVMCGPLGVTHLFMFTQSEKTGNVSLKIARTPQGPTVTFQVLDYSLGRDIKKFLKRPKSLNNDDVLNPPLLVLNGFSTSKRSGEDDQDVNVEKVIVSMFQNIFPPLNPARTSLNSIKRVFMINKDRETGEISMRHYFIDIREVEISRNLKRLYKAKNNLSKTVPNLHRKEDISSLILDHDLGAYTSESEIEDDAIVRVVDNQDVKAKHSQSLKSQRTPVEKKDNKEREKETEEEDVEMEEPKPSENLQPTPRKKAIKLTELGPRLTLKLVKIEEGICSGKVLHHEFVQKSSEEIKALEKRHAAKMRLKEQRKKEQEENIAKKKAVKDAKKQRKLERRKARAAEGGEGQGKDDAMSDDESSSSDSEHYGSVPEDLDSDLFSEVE

Noc2-TAP (S. cerevisiae) [3] = molecular target: T1, Noc2-TAP (S. cerevisiae); assay: co-IP; Noc2-TAP purification from wild-type control and GAL1-RPL3, GAL1-NPA1 and GAL1-SSF1 Δssf2 strains grown in galactose (YPG) or shifted to glucose (YPD) for about 18 h; western blotting (Supplementary Figure S8); remark: listed apart in the source

- binding (Noc2-TAP (S. cerevisiae) [1]): binds
- binding (Noc2-TAP (S. cerevisiae) [2]): binds
Molecule: Rpl3 (from UniProt P14126 1-387)

- binding (Noc2-TAP (S. cerevisiae) [1]): binds
- binding (Noc2-TAP (S. cerevisiae) [2]): binds
- binding (Nsa1-TAP (S. cerevisiae)): no binding
- binding (Ssf1-TAP (S. cerevisiae)): binds
Molecule: Npa1 (from UniProt P34241 1-1764)

- binding (Nsa1-TAP (S. cerevisiae)): binds
B1: Nop1 (enzyme, UniProt P15646 1-327)
chain: MSFRPGSRGGSRGGSRGGFGGRGGSRGGARGGSRGGFGGRGGSRGGARGGSRGGFGGRGGSRGGARGGSRGGRGGAAGGARGGAKVVIEPHRHAGVYIARGKEDLLVTKNMAPGESVYGEKRISVEEPSKEDGVPPTKVEYRVWNPFRSKLAAGIMGGLDELFIAPGKKVLYLGAASGTSVSHVSDVVGPEGVVYAVEFSHRPGRELISMAKKRPNIIPIIEDARHPQKYRMLIGMVDCVFADVAQPDQARIIALNSHMFLKDQGGVVISIKANCIDSTVDAETVFAREVQKLREERIKPLEQLTLEPYERDHCIVVGRYMRSGLKK

- binding (Noc2-TAP (S. cerevisiae) [2]): binds
- binding (Nsa1-TAP (S. cerevisiae)): binds
B2: Nhp2 (protein, UniProt P32495 1-156)
chain: MGKDNKEHKESKESKTVDNYEARMPAVLPFAKPLASKKLNKKVLKTVKKASKAKNVKRGVKEVVKALRKGEKGLVVIAGDISPADVISHIPVLCEDHSVPYIFIPSKQDLGAAGATKRPTSVVFIVPGSNKKKDGKNKEEEYKESFNEVVKEVQAL

- binding (Noc2-TAP (S. cerevisiae) [3]): binds
B3: Dbp6 (enzyme, UniProt P53734 1-629)
chain: MFASRFDPSQLTAPAASAPEGIVGTTPPAIVPLKRQATESDNEEYGSHQDSDESSNSSSEEDEDRMQVDYGASEEDSSEVEEEESKPSTHSTVLSRFKQTVSLQERLGASDIAESKEDEGIEDEAASTHQLKQIPQPEFVKNPMNLNTNSLQFKSTGWLNTEKIYYDNSLIKPFSDYANELEAKLLQNICKNFSTNTFPIQSIILDSILPVLNFTLNVSKRNFTRRIGDILVNAATGSGKTLAYSIPIVQTLFKRQINRLRCIIIVPTKLLINQVYTTLTKLTQGTSLIVSIAKLENSLKDEHKKLSNLEPDILITTPGRLVDHLNMKSINLKNLKFLIIDEADRLLNQSFQGWCPKLMSHLKTDKLDTLPGNVIKMIFSATLTTNTEKLNGLNLYKPKLFLKQTDKLYQLPNKLNEFNINIPTAKSVYKPLILLYSICQFMAHSPIAAKILIFVKSNESSIRLSKLLQLICESRSQSSVLKNLQNLAVSINSVNSNNSKAENKKIVANFSHHSESAGITILITTDIMSRGIDINDITQVINYDPPMSSQQYVHRVGRTARANELGSAYNLLVGRGERTFFDDLNKDLDRDGKSVQPLELDFTLLESDSELYTSSLESLKNYHNNTAQA
